The text below walks through data of PMC12607029.

Sequences of proteins named here, by UniProt entry; tags and fusion partners are left off.
UniProt P06748: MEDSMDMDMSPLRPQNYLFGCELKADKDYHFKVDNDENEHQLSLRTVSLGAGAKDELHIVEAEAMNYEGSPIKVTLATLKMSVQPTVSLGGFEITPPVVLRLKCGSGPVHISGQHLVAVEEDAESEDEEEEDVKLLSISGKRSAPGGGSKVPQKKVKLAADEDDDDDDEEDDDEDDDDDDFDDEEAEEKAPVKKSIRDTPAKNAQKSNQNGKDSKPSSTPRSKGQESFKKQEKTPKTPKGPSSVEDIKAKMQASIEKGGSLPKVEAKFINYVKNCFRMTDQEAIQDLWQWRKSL
UniProt Q9BQ67: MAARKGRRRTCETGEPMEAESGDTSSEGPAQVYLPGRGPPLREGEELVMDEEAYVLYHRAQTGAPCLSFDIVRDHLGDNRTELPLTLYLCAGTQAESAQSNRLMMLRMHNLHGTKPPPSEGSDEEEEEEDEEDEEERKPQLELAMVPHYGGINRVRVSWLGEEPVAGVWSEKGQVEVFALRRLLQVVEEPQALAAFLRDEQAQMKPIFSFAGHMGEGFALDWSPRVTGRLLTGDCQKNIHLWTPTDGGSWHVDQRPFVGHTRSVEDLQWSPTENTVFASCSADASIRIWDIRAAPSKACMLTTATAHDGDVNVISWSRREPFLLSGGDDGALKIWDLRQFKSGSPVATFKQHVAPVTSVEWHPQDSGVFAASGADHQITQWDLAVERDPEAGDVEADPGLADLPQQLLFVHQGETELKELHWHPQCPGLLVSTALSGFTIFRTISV

Assay [1] concerns the target nucleophosmin 1 (NPM1), endogenous (human (endogenous in HepG2 and SK-Hep-1)) (UniProt P06748). Nature of the assay: co-IP; endogenous proteins in HepG2 and SK-Hep-1 cells; also before and after OXA (20 μM) treatment for 12 h (interaction enhanced after OXA).
The target of assay [2] is nucleophosmin 1 (NPM1), exogenous (UniProt P06748). The experiment in a line: co-IP; exogenous GRWD1 and NPM1 in 293T cells.

No constants are given. Whether binding was seen depends on the method and setting. Binding seen in cells or lysates may run through a third protein. Some results given as binding are weak or reduced against the parent protein; the word gives no strength.

For “glutamate-rich WD repeat containing 1 (GRWD1), endogenous (from UniProt Q9BQ67 1-446)”, in assay [1], the binding entry is “binds”.

In the case of “glutamate-rich WD repeat containing 1 (GRWD1), exogenous (from UniProt Q9BQ67 1-446)”, the binding entry in assay [2] is “binds”.
